Experimental data: PubChem BioAssay AID1159584 (Peter MacCallum Cancer Centre, 2016)
Assay: 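Knock-downs that harm CDH1-null cells more than parental MCF10A cells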 (primary screen). Cell system: human MCF10A breast epithelial cells, parental and CDH1-null. Reagents: siRNA against human genes. Measurement: 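Cell viability by CellTiter-Glo ATP luminescence, each line scaled to the mean of mock wells across plates, then CDH1-null over parental ratio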. Reading the numbers: CDH1-null / parental viability ratio: higher = CDH1-null cells survive relatively better than parental; CDH1-null viability vs mock: higher = more viable CDH1-null cells.
Shown is one part, drawn at random, of about 18,000 deposited reagents. Not all columns of the deposit are shown. Not stated in the record: the amount of reagent, the time to read-out.

The first 6 records, ahead of the listing:
no.	Target gene	PubChem SID	CDH1-null / parental viability ratio	CDH1-null viability vs mock (fraction of mock)
1	COL4A2 (GeneID 1284)	SID152156415	0.96	0.77
2	SEMA3B (GeneID 7869)	SID152155120	1.08	0.71
3	EME2 (GeneID 197342)	SID135625235	1.17	0.42
4	ALLC (GeneID 55821)	SID152153794	0.93	0.91
5	OR10K1 (GeneID 391109)	SID134329872	1.24	1.17
6	CORO1C (GeneID 23603)	SID134321271	0.94	0.46

The listing, from the first entry:
no.	Target gene	PubChem SID	CDH1-null / parental viability ratio	CDH1-null viability vs mock (fraction of mock)
1	COL4A2 (GeneID 1284)	SID152156415	0.96	0.77
2	SEMA3B (GeneID 7869)	SID152155120	1.08	0.71
3	EME2 (GeneID 197342)	SID135625235	1.17	0.42
4	ALLC (GeneID 55821)	SID152153794	0.93	0.91
5	OR10K1 (GeneID 391109)	SID134329872	1.24	1.17
6	CORO1C (GeneID 23603)	SID134321271	0.94	0.46
7	LRCH3 (GeneID 84859)	SID134319060	0.91	0.42
8	ESCO2 (GeneID 157570)	SID152151258	0.82	0.56
9	C8orf82 (GeneID 414919)	SID135625122	1.04	0.88
10	ZHX1 (GeneID 11244)	SID152151789	0.95	0.88
11	TSPYL6 (GeneID 388951)	SID135625278	0.9	0.72
12	BRDT (GeneID 676)	SID152149808	0.91	0.95
13	NFYA (GeneID 4800)	SID134313982	1	0.94
14	TMEM144 (GeneID 55314)	SID152149813	0.93	0.68
15	MTCL2 (GeneID 140710)	SID135625222	1.14	1.21
16	COL25A1 (GeneID 84570)	SID134318998	1.21	1.02
17	CCDC60 (GeneID 160777)	SID134322275	0.81	0.29
18	HAMP (GeneID 57817)	SID135622654	1.06	0.7
19	IFI27L1 (GeneID 122509)	SID134319949	0.87	0.71
20	SRRM1 (GeneID 10250)	SID152149223	0.92	0.65
21	FAM209B (GeneID 388799)	SID152154710	1.04	0.8
22	THUMPD3 (GeneID 25917)	SID134318157	1.1	1.06
23	MRPS12 (GeneID 6183)	SID152146983	1	0.46
24	OR5W2 (GeneID 390148)	SID135625125	0.86	0.62
25	OR2A12 (GeneID 346525)	SID152153327	0.71	0.65
26	TIMM13 (GeneID 26517)	SID135621796	1.48	0.74
27	H1-6 (GeneID 3010)	SID152153333	1.01	0.88
28	ZBTB7A (GeneID 51341)	SID134324459	0.84	0.72
29	FEZF1 (GeneID 389549)	SID152149764	0.97	0.86
30	MC3R (GeneID 4159)	SID135621048	2.15	0.73
31	C22orf15 (GeneID 150248)	SID135623572	1.39	0.89
32	CLK1 (GeneID 1195)	SID152154455	0.93	0.8
33	MCCC2 (GeneID 64087)	SID134310668	1.07	0.87
34	ZBTB39 (GeneID 9880)	SID134324834	1.07	0.88
35	LINC03124 (GeneID 29798)	SID134324078	0.76	0.78
36	MYLK4 (GeneID 340156)	SID152150692	1.01	0.78
37	HDHD5 (GeneID 27440)	SID135622873	1.25	1.25
38	OR7A5 (GeneID 26659)	SID134318023	1.16	0.66
39	LIPF (GeneID 8513)	SID152156538	1.07	1.16
40	NECAB3 (GeneID 63941)	SID152149861	0.79	0.62
41	GHITM (GeneID 27069)	SID135624005	1.07	1.04
42	MGAM (GeneID 8972)	SID135621694	1.15	0.75
43	MRPL22 (GeneID 29093)	SID135623302	1.01	0.72
44	PRDM1 (GeneID 639)	SID135621747	1.04	1.18
45	PDZD7 (GeneID 79955)	SID134319900	0.94	0.6
46	NCF4 (GeneID 4689)	SID152154623	0.88	0.44
47	DEFB134 (GeneID 613211)	SID135625414	0.96	0.94
48	FBXO45 (GeneID 200933)	SID135624376	1.13	1.06
49	CYS1 (GeneID 192668)	SID135625234	1.05	0.84
50	NRAS (GeneID 4893)	SID134310164	1.03	0.8
51	NKAPD1 (GeneID 55216)	SID152150910	1.14	0.9
52	ZNF706 (GeneID 51123)	SID152151073	0.75	0.44
53	NME9 (GeneID 347736)	SID134311973	1.08	0.95
54	MRGPRD (GeneID 116512)	SID135621049	1.37	1.03
55	SYT5 (GeneID 6861)	SID152153194	1.27	0.9
56	TNKS (GeneID 8658)	SID152153145	1.13	1.15
57	SETD1A (GeneID 9739)	SID134325513	1.14	0.96
58	DMGDH (GeneID 29958)	SID134313051	1.16	0.94
59	SYDE1 (GeneID 85360)	SID134319875	1.11	0.78
60	OR8S1 (GeneID 341568)	SID152150582	0.82	0.56
61	TRIM51BP (GeneID 399937)	SID135624861	0.95	0.9
62	ING1 (GeneID 3621)	SID135621210	1.02	0.98
63	OAF (GeneID 220323)	SID134321796	1.18	0.72
64	CD58 (GeneID 965)	SID134310510	0.86	0.67
65	CD38 (GeneID 952)	SID135621723	0.9	0.97
66	NAT1 (GeneID 9)	SID134313732	0.91	0.95
67	RUNX3 (GeneID 864)	SID152152686	1.22	0.94
68	CLDN23 (GeneID 137075)	SID152147995	1.85	1.02
69	TAAR1 (GeneID 134864)	SID152147864	0.79	0.84
70	FAAP24 (GeneID 91442)	SID152148703	1.1	0.8
71	ZSWIM2 (GeneID 151112)	SID152147917	0.87	0.91
72	OCLN (GeneID 100506658)	SID135622110	1.02	0.96
73	WIPF1 (GeneID 7456)	SID152149422	1.09	0.87
74	ANKRD6 (GeneID 22881)	SID152154860	0.8	0.78
75	EGR4 (GeneID 1961)	SID135621207	1.07	0.98
76	ITGAE (GeneID 3682)	SID152152269	0.98	0.96
77	POGLUT3 (GeneID 143888)	SID135622985	0.94	0.81
78	AFG2B (GeneID 79029)	SID134313743	1.02	1.29
79	EIF1B (GeneID 10289)	SID134323744	0.8	0.76
80	FOXA2 (GeneID 3170)	SID135621888	0.76	0.52
81	PRR14L (GeneID 253143)	SID134322274	1.04	0.96
82	CRACR2B (GeneID 283229)	SID152147260	1.15	0.62
83	COL11A1 (GeneID 1301)	SID135622159	0.86	0.56
84	CHST4 (GeneID 10164)	SID134310651	0.91	0.82
85	MT1G (GeneID 4495)	SID135623907	1.16	0.96
86	PTRH2 (GeneID 51651)	SID152151955	0.8	0.75
87	MIA3 (GeneID 375056)	SID135625638	0.92	0.68
